Reference: patent publication US7829560B2, “1,4-disubstituted naphthalenes as inhibitors of P38 MAP kinase” (Arqule, Inc., priority 2004, dated 2010)
The match of structure and compound is tentative.

Amino acid sequences for entries named in this document (tags omitted).
UniProt Q16539, whole entry: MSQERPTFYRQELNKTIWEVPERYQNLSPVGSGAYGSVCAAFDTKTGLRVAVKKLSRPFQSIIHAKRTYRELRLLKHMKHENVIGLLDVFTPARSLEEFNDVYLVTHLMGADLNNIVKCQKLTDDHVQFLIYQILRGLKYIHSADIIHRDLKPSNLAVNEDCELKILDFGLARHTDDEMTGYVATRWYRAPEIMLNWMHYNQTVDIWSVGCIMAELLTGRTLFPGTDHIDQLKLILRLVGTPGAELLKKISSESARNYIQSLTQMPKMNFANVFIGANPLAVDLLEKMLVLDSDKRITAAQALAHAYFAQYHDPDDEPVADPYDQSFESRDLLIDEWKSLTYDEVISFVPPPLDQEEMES

Columns and labels:
[1] = target: p38α (Homo sapiens, UniProt Q16539); test: p38 MAP Kinase assay: inhibition of ATF2 phosphorylation, ELISA; format: biochemical
[2] = test system: TNFα release from THP-1 cells; test: Inhibition of TNFα release from LPS-stimulated THP-1 cells, ELISA; settings: read-out: [CELL] THP-1, IC50, TNF ALPHA, ELISA

| SMILES | [ENZ] P38 ALPHA, PCT INH, ELISA (10 uM;ATF2) (Percent) ([1]; 10 uM, substrate ATF2) [%] | IC50 ([1]; read-out: [ENZ] P38 ALPHA, IC50, ELISA, ATF2 phosphorylation) [nM] | IC50 [2] [nM] |
| --- | --- | --- | --- |
| Cc1cc(F)ccc1-c1cccc(C(=O)Nc2ccc(OCCN3CCOCC3)c3ccccc23)c1 [Compound B245] | 83 | 488 | 3650 |
| O=C(Nc1ccc(Oc2ccnc(NC[C@@H]3CCCO3)n2)c2ccccc12)c1cc(F)cc(N2CCCCC2)c1 | – | – | 11 |
